The text below walks through data of the supplement of paper PMC9226226.

The structures appear in SMILES notation. Values joined by “and” are separate entries in the source; they are usually repeats but may differ in a detail not shown here. Equal entries are not always repeated. ± gives the standard deviation of the averaged measurements. Some of the results follow. Some well-known active drugs show little effect in this data set, so a weak value is uncertain.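 Prematurely aging human mesenchymal stem cells without the Werner syndrome gene were monitored by automated live-cell imaging over three biological repeats. The top twenty drugs for increasing growth versus vehicle moved forward; no fixed cutoff was specified.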

This assay concerns Werner syndrome hMSCs (WRN-/-). The experiment in a line: relative cell density (fold change vs vehicle control); higher = more proliferation (geroprotective). The note with it: concentration (umol/L): 1, 6 days.

On to `CN[C@@H]1[C@H](O[C@H]2[C@H](O[C@H]3[C@H](O)[C@@H](O)[C@H](N=C(N)N)[C@@H](O)[C@@H]3N=C(N)N)O[C@@H](C)[C@]2(O)C=O)O[C@@H](CO)[C@H](O)[C@H]1O`, for which the relative cell density (vehicle: Water) came to 0.912.
As for `Nc1nc(Cl)nc2c1ncn2[C@H]1C[C@H](O)[C@@H](CO)O1`, for the setting “vehicle: DMSO”, the relative cell density came to 1.67.
Same read-out and setting: next, `Cn1nnc(-c2ccc(-c3ccc(N4C[C@H](COP(=O)(O)O)OC4=O)cc3F)cn2)n1`: 1.1.
On to `CCC(=O)O[C@@H](O[P@](=O)(CCCCc1ccccc1)CC(=O)N1C[C@H](C2CCCCC2)C[C@H]1C(=O)O)C(C)C`, for which the relative cell density (vehicle: Water) is 0.965 ± 0.084.
Consider `CC1(C)S[C@@H]2[C@H](NC(=O)[C@H](N)c3ccc(O)cc3)C(=O)N2[C@H]1C(=O)O`, for which the relative cell density (vehicle: DMSO) was 1.51 and 1.19.
For `OCCOCCN1CCN(C2=Nc3ccccc3Sc3ccccc32)CC1`, where the note is “vehicle: DMSO”, the relative cell density came out at 0.964.
Same read-out and setting: next, `CN(N=O)C(=O)NC1C(O)OC(CO)C(O)C1O` (stereo not given): 1.09; `Oc1ncnc2[nH]ncc12`: 1.11; `C=C[C@]1(C)C[C@@H](OC(=O)CS[C@@H]2C[C@H]3CC[C@@H](C2)N3C)[C@]2(C)[C@H](C)CC[C@]3(CCC(=O)[C@H]32)[C@@H](C)[C@@H]1O`: 1.16.
Turning to `C[C@]12CCC(=O)C=C1CC[C@@H]1[C@@H]2[C@@H](O)C[C@@]2(C)[C@H]1CC[C@]2(O)C(=O)CO`, the relative cell density (vehicle: DMSO) was 0.808.
Molecule `CCOC(=O)C1=C[C@@H](OC(CC)CC)[C@H](NC(C)=O)[C@@H](N)C1` registered a relative cell density (vehicle: Water) of 1.25.
`Cc1onc(-c2ccccc2)c1-c1ccc(S(N)(=O)=O)cc1`: under “vehicle: DMSO”, the relative cell density is 1.16.
On the same count and under the same terms, next, `COc1ccc(CCN(C)CCCC(C#N)(c2ccc(OC)c(OC)c2)C(C)C)cc1OC` (stereo not given): 0.958; `CCCc1cc(=O)[nH]c(=S)[nH]1`: 0.995.
As to `CO/N=C(\C(=O)N[C@@H]1C(=O)N2C(C(=O)OCOC(=O)C(C)(C)C)=C(/C=C\c3scnc3C)CS[C@H]12)c1csc(N)n1`, the relative cell density (vehicle: DMSO) came to 1.13.
Same read-out and setting: next, `CC(C)(C(=O)O)c1ccc(C(O)CCCN2CCC(C(O)(c3ccccc3)c3ccccc3)CC2)cc1` (stereo not given): 1.01.
Same read-out and setting: next, `CC(=O)O[C@]1(C(C)=O)CC[C@H]2[C@@H]3C[C@H](C)C4=CC(=O)C=C[C@]4(C)[C@@]3(F)[C@@H](O)C[C@@]21C`: 1.16.
On the same count and under the same terms, next, `C[N+]1(C)[C@@H]2C[C@@H](OC(=O)C(O)(c3cccs3)c3cccs3)C[C@H]1[C@@H]1O[C@@H]12`: 1.05.
Turning to `CC(C)(C)C(=O)Oc1ccc(S(=O)(=O)Nc2ccccc2C(=O)NCC(=O)O)cc1`, for the setting “vehicle: DMSO”, the relative cell density came out at 0.999.
The same measure, in the same setting: the same measure for `CC(C(=O)O)c1ccc2c(c1)Cc1cccnc1O2` (stereo not given): 1.22.
For the setting “vehicle: DMSO”, `C[C@H]1COc2c(C3(N)CC3)c(F)cc3c(=O)c(C(=O)O)cn1c23` yielded a relative cell density of 1.19.
Still for that read-out and setting: the same measure for `CC(=O)Nc1ccccc1`: 0.944.
As to `COC(c1ccccc1)(c1ccccc1)[C@H](Oc1nc(C)cc(C)n1)C(=O)O`, for the setting “vehicle: DMSO”, the relative cell density came out at 1.18.
The same measure, in the same setting: the same measure for `COC(=O)C1=C(C)NC(C)=C(C(=O)OCCN2CCN(C(c3ccccc3)c3ccccc3)CC2)C1c1cccc([N+](=O)[O-])c1` (stereo not given): 1.28 and 1.17; for `Cc1c(C)c2c(c(C)c1O)CCC(C)(COc1ccc(CC3SC(=O)NC3=O)cc1)O2` (stereo not given): 1.05.
The same measure, in the same setting: next, `C[N+]1(C)[C@@H]2CC[C@H]1C[C@@H](OC(=O)C(O)c1ccccc1)C2` (stereo not given in full): 1.22.
As for `Cc1ccccc1-c1cc(N2CCN(C)CC2)ncc1N(C)C(=O)C(C)(C)c1cc(C(F)(F)F)cc(C(F)(F)F)c1`, the relative cell density (vehicle: Water) came out at 1.05.
`CC(C)OC(=O)[C@H](C)N[P@](=O)(OC[C@H]1O[C@@H](n2ccc(=O)[nH]c2=O)[C@](C)(F)[C@@H]1O)Oc1ccccc1` returned a relative cell density (vehicle: DMSO) of 1.46.
For the molecule `COC(=O)Nc1nc2cc(C(=O)c3ccccc3)ccc2[nH]1`, under “vehicle: DMSO”, the relative cell density is 0.245.
With `CC1(C)S[C@@H]2[C@H](NC(=O)[C@H](NC(=O)N3CCNC3=O)c3ccccc3)C(=O)N2[C@H]1C(=O)O`, the relative cell density (vehicle: DMSO) was found to be 1.08.
Same read-out and setting: next, `CC(C)c1ccc2oc3nc(N)c(C(=O)O)cc3c(=O)c2c1`: 0.934; `Cc1cn([C@H]2O[C@@H](CO)[C@H](O)[C@H]2F)c(=O)[nH]c1=O`: 1.1.
Still for that read-out and setting: the same measure for `CC(CCc1ccccc1)NCC(O)c1ccc(O)c(C(N)=O)c1` (stereo not given): 1.2; for `CCOC(=O)[C@H](CCc1ccccc1)N[C@@H](C)C(=O)N1Cc2ccccc2C[C@H]1C(=O)O`: 1.09.
For the molecule `CC1CC(OC(=O)C(O)c2ccccc2)CC(C)(C)C1` (stereo not given), for the setting “vehicle: DMSO”, the relative cell density was found to be 1.36.
Still for that read-out and setting: next, `Cc1oncc1C(=O)Nc1ccc(C(F)(F)F)cc1`: 1.04.
On the same count and under the same terms, next, `COc1ccc(C(Cl)=C(c2ccc(OC)cc2)c2ccc(OC)cc2)cc1`: 0.691; `O=C(O)c1cccnc1Nc1cccc(C(F)(F)F)c1`: 0.956.
Molecule `CN(C)/N=N/c1[nH]cnc1C(N)=O` registered a relative cell density (vehicle: DMSO) of 0.886.
`C[N+](C)(C)CCCCCC[N+](C)(C)C`: the relative cell density (vehicle: Water) is 1.01.
With `O=c1ccc2ccc(OCCCCN3CCN(c4cccc5sccc45)CC3)cc2[nH]1`, the relative cell density (vehicle: DMSO) turned out to be 1.35.
The same measure, in the same setting: next, `Cc1onc(-c2c(Cl)cccc2Cl)c1C(=O)N[C@@H]1C(=O)N2[C@@H]1SC(C)(C)[C@@H]2C(=O)O`: 0.88; `O=C(O)COCCN1CCN(C(c2ccccc2)c2ccc(Cl)cc2)CC1` (stereo not given): 1.07.
`N[C@@H]1CONC1=O` registered a relative cell density (vehicle: Water) of 0.993.
For the molecule `CCCSc1nc(N[C@@H]2C[C@H]2c2ccc(F)c(F)c2)c2nnn([C@@H]3C[C@H](OCCO)[C@@H](O)[C@H]3O)c2n1`, the relative cell density (vehicle: DMSO) is 0.568.
